Data taken from publication PMC5665887.
Results are given in words; binding and its absence hold for the method and conditions named. Binding seen in cells or lysates may run through a third protein. A yes stands for co-enrichment or nearness to the bait. Other partners may have been found. Sequences can lack the tags named with a protein.

Molecular target: T1, FLAG-tagged evectin-2 (WT) (UniProt Q96CS7)
T1 sequence: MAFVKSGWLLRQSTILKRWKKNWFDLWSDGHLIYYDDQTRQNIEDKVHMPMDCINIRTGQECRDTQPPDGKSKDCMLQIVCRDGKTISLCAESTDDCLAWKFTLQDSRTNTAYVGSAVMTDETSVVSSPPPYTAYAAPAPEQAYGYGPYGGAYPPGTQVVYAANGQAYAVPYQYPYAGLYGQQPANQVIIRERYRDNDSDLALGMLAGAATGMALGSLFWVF
Test: affinity purification with mass spectrometry; immunoprecipitates of FLAG-tagged evectin-2; peptides identified; cells and conditions not told in the text shown

| binding | Substance |
| --- | --- |
| binds | Itch (endogenous) (enzyme) |
| binds | WWP1 (endogenous) (enzyme) |
| binds | WWP2 (endogenous) (enzyme) |
